The list does not hold the whole screen: it is rich in T/C values a quarter to a half above the control, in often repeated tests (any T/C) and in doses without a T/C. Further doses and runs are listed elsewhere. T/C is the treated group as % of the vehicle group. Some doses have a count of surviving animals in place of a T/C: the source files T/C as zero there, which appears to mark a toxic dose or a test without result, not a measured value. Some survivor counts are full or nearly so, which does not show that the dose was tolerated: the source hardly ever lists a survival T/C far under the control, and the zero likely stands for such cases as well. Survivors were counted at the toxicity check, usually on the fifth day, unless a day is given; later deaths do not show. Schedules are NCI's codes, taken here to give the interval after Q, in days (D) or hours (H), and the number of doses after X. For survival time, this PubChem deposit counts one and a half times the control or more as active, and values a quarter to a half above the control carry no call in these data; other NCI protocols may use other cut-offs. Some entries were tested several times; their values stand side by side, smallest first. Some T/C values are followed by the survivors on the day toxicity was checked, most often the fifth; where none is given, no animal had died by that day. *1 amine or outer side, *2 acyl side, *3 side chain or, on linkers, in order; H or OH if unused. Where a SMILES comes first, the peptide text is derived from it. Bridges are numbered along the chain shown (N, C = ends). Roman numbers before positions name the chains, in order. [ ]: non-standard residue; d: D form. Actinocin(9to1) = Cc1c2oc3c(C)ccc(C(=O)[*:1])c3nc-2c(C(=O)[*:2])c(N)c1=O; aThr = C[C@H](O)[C@H](N)C(=O)O; NMeV = CN[C@H](C(=O)O)C(C)C; Sar = CNCC(=O)O
Test system: Madison 109 lung carcinoma i.m., mice, median survival
Assay: NCI In Vivo Anticancer Drug Screen. Data for tumor model Madison 109 Lung Carcinoma (intramuscular) in unknown mice
Settings: T/C endpoint: median survival time, higher T/C = longer survival
Procedure: The antitumor activity of compounds was measured in mice bearing transplantable tumors. Survival or tumor size were measured and the results are expressed as the measurement made in the treated group (T) divided by the measurement made in the vehicle treated control group (C). The tumor model used in this assay is Madison 109 Lung Carcinoma (intramuscular) in unknown mice

For `CC[C@H]1CN2CCc3cc(OC)c(OC)cc3[C@@H]2C[C@@H]1C[C@H]1NCCc2cc(OC)c(OC)cc21`, the survivor count (dose: 1.0 mg/kg/injection, schedule: Q01DX009 (ip), vehicle: water) was 5 of 8.
For `Cc1c2oc3c(C)ccc(C(=O)N[C@@H]4C(=O)N[C@H](C(C)C)C(=O)N5CCC[C@H]5C(=O)N(C)CC(=O)N(C)[C@@H](C(C)C)C(=O)O[C@H]4C)c3nc-2c(C(=O)N[C@@H]2C(=O)N[C@H](C(C)C)C(=O)N3CCC[C@H]3C(=O)N(C)CC(=O)N(C)[C@@H](C(C)C)C(=O)O[C@H]2C)c(N)c1=O` (I: [aThr][dV]P[Sar][NMeV] / II: [aThr][dV]P[Sar][NMeV]; ester I:1-I:C, II:1-II:C; linker I:N-II:N via Actinocin(9to1)), the T/C (dose: 0.02 mg/kg/injection, schedule: Q01DX009 (ip), vehicle: water, evaluated on day 5) was 108 and 120 % of control, the T/C (dose: 0.02 mg/kg/injection, schedule: Q01DX009 (ip), vehicle: water, evaluated on day 57) was 108 % of control and the T/C (dose: 0.02 mg/kg/injection, schedule: Q01DX009 (ip), vehicle: water, evaluated on day 66) was 120 % of control. For the same compound, the T/C (dose: 0.02 mg/kg/injection, schedule: Q01DX009 (ip), vehicle: water, evaluated on day 68) was 98 % of control, the T/C (dose: 0.03 mg/kg/injection, schedule: Q01DX009 (ip), vehicle: water, evaluated on day 5) was 102 and 112 % of control and the T/C (dose: 0.03 mg/kg/injection, schedule: Q01DX009 (ip), vehicle: water, evaluated on day 57) was 102 % of control. For the same compound, the T/C (dose: 0.03 mg/kg/injection, schedule: Q01DX009 (ip), vehicle: water, evaluated on day 64) was 121 % of control, the T/C (dose: 0.03 mg/kg/injection, schedule: Q01DX009 (ip), vehicle: water, evaluated on day 66) was 112 % of control and the T/C (dose: 0.03 mg/kg/injection, schedule: Q01DX009 (ip), vehicle: water, evaluated on day 68) was 109 % of control [7 of 8 alive]. The T/C (dose: 0.04 mg/kg/injection, schedule: Q01DX009 (ip), vehicle: water, evaluated on day 5) was 118 and 123 % of control, the T/C (dose: 0.04 mg/kg/injection, schedule: Q01DX009 (ip), vehicle: water, evaluated on day 57) was 123 % of control and the T/C (dose: 0.04 mg/kg/injection, schedule: Q01DX009 (ip), vehicle: water, evaluated on day 64) was 119 % of control. The T/C (dose: 0.04 mg/kg/injection, schedule: Q01DX009 (ip), vehicle: water, evaluated on day 66) was 118 % of control, the T/C (dose: 0.04 mg/kg/injection, schedule: Q01DX009 (ip), vehicle: water, evaluated on day 68) was 91 % of control and the T/C (dose: 0.04 mg/kg/injection, schedule: Q01DX009 (ip), vehicle: water, evaluated on day 78) was 116 % of control. The T/C (dose: 0.05 mg/kg/injection, schedule: Q01DX009 (ip), vehicle: water, evaluated on day 5) was 129 and 134 % of control, the T/C (dose: 0.05 mg/kg/injection, schedule: Q01DX009 (ip), vehicle: water, evaluated on day 57) was 129 % of control and the T/C (dose: 0.05 mg/kg/injection, schedule: Q01DX009 (ip), vehicle: water, evaluated on day 64) was 115 % of control. For the same compound, the T/C (dose: 0.05 mg/kg/injection, schedule: Q01DX009 (ip), vehicle: water, evaluated on day 66) was 134 % of control, the T/C (dose: 0.05 mg/kg/injection, schedule: Q01DX009 (ip), vehicle: water, evaluated on day 68) was 106 % of control and the T/C (dose: 0.05 mg/kg/injection, schedule: Q01DX009 (ip), vehicle: water, evaluated on day 78) was 135 % of control. The T/C (dose: 0.06 mg/kg/injection, schedule: Q01DX009 (ip), vehicle: water, evaluated on day 5) was 106 and 123 % of control, the T/C (dose: 0.06 mg/kg/injection, schedule: Q01DX009 (ip), vehicle: water, evaluated on day 57) was 123 % of control and the T/C (dose: 0.06 mg/kg/injection, schedule: Q01DX009 (ip), vehicle: water, evaluated on day 64) was 118 % of control. The T/C (dose: 0.06 mg/kg/injection, schedule: Q01DX009 (ip), vehicle: water, evaluated on day 66) was 106 % of control, the survivor count (dose: 0.06 mg/kg/injection, schedule: Q01DX009 (ip), vehicle: water) was 10 of 10 and the T/C (dose: 0.08 mg/kg/injection, schedule: Q03DX009 (ip), vehicle: water) was 136 % of control. For the same compound, the T/C (dose: 0.1 mg/kg/injection, schedule: Q02DX009 (ip), vehicle: water) was 136 % of control, the survivor count (dose: 0.1 mg/kg/injection, schedule: Q03DX009 (ip), vehicle: water) was 8 of 8 and the survivor count (dose: 0.12 mg/kg/injection, schedule: Q03DX009 (ip), vehicle: water) was 8 of 8. The survivor count (dose: 0.12 mg/kg/injection, schedule: Q04DX009 (ip), vehicle: water) was 8 of 8, the survivor count (dose: 0.14 mg/kg/injection, schedule: Q03DX009 (ip), vehicle: water) was 8 of 8 and the survivor count (dose: 0.16 mg/kg/injection, schedule: Q04DX009 (ip), vehicle: water) was 8 of 8. The survivor count (dose: 0.2 mg/kg/injection, schedule: Q04DX009 (ip), vehicle: water) was 8 of 8, the survivor count (dose: 0.6 mg/kg/injection, schedule: Q01DX001 (ip), vehicle: water) was 8 of 8 and the survivor count (dose: 0.8 mg/kg/injection, schedule: Q01DX001 (ip), vehicle: water) was 5 of 8.
`O=S(=O)(n1ccnc1)C(F)(F)F` was tested, and the survivor count (dose: 23.0 mg/kg/injection, schedule: Q01DX001 (ip), vehicle: saline) was 8 of 8 and the survivor count (dose: 39.0 mg/kg/injection, schedule: Q01DX001 (ip), vehicle: saline) was 8 of 8.

From PubChem BioAssay AID300 (DTP/NCI, 2004)
